The values that follow come from patent US10829495B2, “Thieno-pyrimidine derivatives and uses thereof” (ZHEJIANG JIANFENG-YIEN BIOTECHNOLOGY CO., LTD., priority 2015, dated 2020).

Chains of the proteins cited; added tags and fusions are not shown. Residues count along the entry.
UniProt P00533, 25-1210 T790M limits assumed: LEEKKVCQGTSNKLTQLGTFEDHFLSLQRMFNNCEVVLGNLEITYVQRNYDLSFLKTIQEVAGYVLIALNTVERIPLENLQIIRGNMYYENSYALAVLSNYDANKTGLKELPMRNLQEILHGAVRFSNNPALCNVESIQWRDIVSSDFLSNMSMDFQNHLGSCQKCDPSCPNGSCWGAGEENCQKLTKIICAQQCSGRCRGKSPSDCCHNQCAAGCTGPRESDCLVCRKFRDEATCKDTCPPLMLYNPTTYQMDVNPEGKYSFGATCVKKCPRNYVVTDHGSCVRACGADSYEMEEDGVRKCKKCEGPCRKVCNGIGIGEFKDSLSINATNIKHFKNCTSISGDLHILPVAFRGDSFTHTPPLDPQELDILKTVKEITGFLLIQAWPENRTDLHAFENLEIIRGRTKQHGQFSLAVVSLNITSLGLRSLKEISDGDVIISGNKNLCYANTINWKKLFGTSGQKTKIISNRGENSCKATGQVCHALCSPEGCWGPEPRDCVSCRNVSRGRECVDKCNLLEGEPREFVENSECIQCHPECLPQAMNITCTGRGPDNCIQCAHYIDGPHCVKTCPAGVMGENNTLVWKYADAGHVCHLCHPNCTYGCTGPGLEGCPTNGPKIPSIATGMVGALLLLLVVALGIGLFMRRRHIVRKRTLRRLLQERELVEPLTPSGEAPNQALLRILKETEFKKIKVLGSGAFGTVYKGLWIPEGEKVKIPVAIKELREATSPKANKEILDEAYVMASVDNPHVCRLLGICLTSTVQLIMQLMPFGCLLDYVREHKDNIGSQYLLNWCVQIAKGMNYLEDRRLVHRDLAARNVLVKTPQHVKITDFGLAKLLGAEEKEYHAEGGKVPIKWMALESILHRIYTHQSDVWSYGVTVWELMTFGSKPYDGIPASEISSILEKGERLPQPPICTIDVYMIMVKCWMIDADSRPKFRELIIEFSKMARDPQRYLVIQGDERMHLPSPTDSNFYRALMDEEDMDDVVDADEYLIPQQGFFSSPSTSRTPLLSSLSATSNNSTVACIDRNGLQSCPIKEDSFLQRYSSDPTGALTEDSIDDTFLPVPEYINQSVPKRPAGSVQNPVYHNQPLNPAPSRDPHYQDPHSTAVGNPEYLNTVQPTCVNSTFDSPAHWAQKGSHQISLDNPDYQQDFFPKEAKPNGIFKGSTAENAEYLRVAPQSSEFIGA

One test relates to NCI-H1975 cells. Kind of test: Efficacy studies in tumor bearing mice (NCI-H1975 xenograft). The settings on record: female nu/nu mice, subcutaneous NCI-H1975 tumors, orally at 40 mg/kg daily.
The target of the next test is EGFR T790M (Homo sapiens, UniProt P00533, T790M). Kind of test: EGFR enzyme assay. Particulars: read-out: T790M (IC50), T790M mutant.

Structures are written as SMILES. The match of structure and compound is tentative. Bounds are passed on as bounds.

The term IC50 denotes the concentration that gives 50% inhibition. Regarding `C=CC(=O)Nc1cc(Nc2nc(-c3cn(C)c4ccccc34)c3ccsc3n2)c(OC)cc1N(C)CCN(C)C`, in the test with NCI-H1975 cells, the “Tumor growth inhibition (%)” value is on record as over 50%. Also, the IC50 at EGFR T790M was under 100 nM.
